From publication PMC7273913
No constants are given. Whether binding was seen depends on the method and setting.

Molecular target: Human FANCL URD-RING (residues 109–375), wild type (human) (UniProt Q9NW38)
Assay: SEC; Superdex 75 after MonoQ anion exchange (first peak); both purified

B1: Human FANCL URD-RING (residues 109–375), wild type (domain or fragment, UniProt Q9NW38 109-375)
chain: QFYSSLIEEIGTLGWDKLVYADTCFSTIKLKAEDASGREHLITLKLKAKYPAESPDYFVDFPVPFCASWTPQSSLISIYSQFLAAIESLKAFWDVMDEIDEKTWVLEPEKPPRSATARRIALGNNVSINIEVDPRHPTMLPECFFLGADHVVKPLGIKLSRNIHLWDPENSVLQNLKDVLEIDFPARAILEKSDFTMDCGICYAYQLDGTIPDQVCDNSQCGQPFHQICLYEWLRGLLTSRQSFNIIFGECPYCSKPITLKMSGRKH
For B1, the binding was “no binding”.
